{"source": "paper PMC6269693", "about": "(Molecules, 2013)", "test": "general procedure: peptide synthesis; PyBOP/DIPEA or NHS activated ester", "details": "conjugation step"}
{"substance": "E[c(RGDyK)]2", "values": [{"measurement": "conjugation yield", "value": 50, "unit": "%"}, {"measurement": "final HPLC purity", "setting": "254 nm", "value": 96.8, "unit": "%"}]}
